Measured values published in the supplement of paper PMC12823440, “Inhibitors supercharge kinase turnover through native proteolytic circuits” (Nature, 2025).
Where a name gives a salt, the structure may show the parent alone. This is one part of the list. The calls rarely recur for the same compound in another form.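 Kinases, fused to nanoluciferase, were expressed in K562 cells; luminescence was measured every 4 h from 2 to 18 h as percent of control (DMSO = 100%, positive control = 0%). A time point is decreased if signal falls significantly (2 sigma). Hits were called by the authors by a rule that is not shown; the count of time points alone does not decide it.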

By UniProt entry, the sequences of proteins in these tests, tags left out. Where a name states a change or a piece, a line headed by the entry shows the natural chain unless it says otherwise.
UniProt P23458: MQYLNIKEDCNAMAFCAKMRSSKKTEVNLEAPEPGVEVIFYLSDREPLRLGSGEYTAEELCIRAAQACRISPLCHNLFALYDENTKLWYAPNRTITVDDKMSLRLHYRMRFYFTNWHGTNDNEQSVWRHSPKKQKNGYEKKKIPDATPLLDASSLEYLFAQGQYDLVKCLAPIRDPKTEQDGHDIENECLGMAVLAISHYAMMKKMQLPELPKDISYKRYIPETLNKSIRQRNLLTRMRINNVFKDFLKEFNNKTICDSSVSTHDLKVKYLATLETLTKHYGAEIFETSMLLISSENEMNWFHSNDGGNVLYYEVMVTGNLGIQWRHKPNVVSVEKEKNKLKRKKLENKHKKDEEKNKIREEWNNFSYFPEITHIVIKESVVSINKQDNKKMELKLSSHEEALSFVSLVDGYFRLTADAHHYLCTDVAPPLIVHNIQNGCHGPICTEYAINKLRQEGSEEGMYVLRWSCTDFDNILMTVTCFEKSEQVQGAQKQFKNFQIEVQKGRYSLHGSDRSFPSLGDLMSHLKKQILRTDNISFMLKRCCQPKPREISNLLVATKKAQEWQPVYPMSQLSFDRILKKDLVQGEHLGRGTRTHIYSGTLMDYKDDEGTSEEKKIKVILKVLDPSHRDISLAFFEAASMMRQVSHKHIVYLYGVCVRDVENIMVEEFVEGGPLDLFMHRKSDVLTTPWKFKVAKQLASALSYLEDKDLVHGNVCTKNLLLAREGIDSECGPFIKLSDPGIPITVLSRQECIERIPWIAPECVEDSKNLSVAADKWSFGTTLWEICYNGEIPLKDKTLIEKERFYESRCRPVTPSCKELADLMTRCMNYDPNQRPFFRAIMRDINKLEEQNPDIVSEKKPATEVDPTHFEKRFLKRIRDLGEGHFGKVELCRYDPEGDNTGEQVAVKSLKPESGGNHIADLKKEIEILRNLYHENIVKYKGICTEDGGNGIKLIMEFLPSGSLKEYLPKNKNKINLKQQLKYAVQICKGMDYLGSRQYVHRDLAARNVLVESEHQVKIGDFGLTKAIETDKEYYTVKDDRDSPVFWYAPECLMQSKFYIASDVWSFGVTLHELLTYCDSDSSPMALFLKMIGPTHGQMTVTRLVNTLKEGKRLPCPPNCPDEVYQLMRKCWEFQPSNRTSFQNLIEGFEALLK
UniProt P06239: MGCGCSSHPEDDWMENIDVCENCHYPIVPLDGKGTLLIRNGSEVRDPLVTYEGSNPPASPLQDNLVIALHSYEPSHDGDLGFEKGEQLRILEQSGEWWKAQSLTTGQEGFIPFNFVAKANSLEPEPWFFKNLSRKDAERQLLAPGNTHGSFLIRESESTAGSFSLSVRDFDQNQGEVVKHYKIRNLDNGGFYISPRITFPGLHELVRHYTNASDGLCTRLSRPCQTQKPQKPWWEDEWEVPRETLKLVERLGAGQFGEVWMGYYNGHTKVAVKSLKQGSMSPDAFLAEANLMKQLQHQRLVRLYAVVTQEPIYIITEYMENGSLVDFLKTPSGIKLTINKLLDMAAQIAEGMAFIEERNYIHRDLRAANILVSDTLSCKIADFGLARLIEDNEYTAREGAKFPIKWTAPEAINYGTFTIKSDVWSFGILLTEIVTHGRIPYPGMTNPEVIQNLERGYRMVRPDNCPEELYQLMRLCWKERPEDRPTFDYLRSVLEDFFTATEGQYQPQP

Target: JAK1 (UniProt P23458)
Experiment: number of time points (of 5) at which kinase-Nluc abundance scored as decreased, DMSO-normalised (count); higher = more persistent destabilization
Settings: K562; 2-18 h

SMILES	number of time points
COc1ccc2c(c1O)OC(C)(C)c1c-2ccc2c1C(=O)N(c1ccc(C(=O)c3ccccc3)cc1)C2=O [Ampkinone] (10 µM)	0
CC1=C2C(=O)O[C@@H](c3ccoc3)[C@]2(C)CCC1 [Fraxinellone] (10 µM)	0
CS(=O)(=O)c1ccc(-c2cnc(N)c(C(=O)Nc3ccccc3)n2)cc1 (10 µM)	0
O=C(NC(NC(=S)Nc1ccc(F)c([N+](=O)[O-])c1)C(Cl)(Cl)Cl)C(c1ccccc1)c1ccccc1 (centres undefined) (10 µM)	0
COc1cc(C(N)=O)nc(-c2cccc(C#C[C@]3(O)CCN(C)C3=O)c2)c1 (10 µM)	0
O=C(Nc1cc(Oc2cc(F)c(NC(=O)C3(C(=O)Nc4ccc(F)cc4)CC3)cc2F)ccn1)C1CC1 [Altiratinib] (10 µM)	0
COc1ccc(Cl)cc1NC(=O)Nc1cc(C)nc2ccccc12 (2.5 µM)	0
COc1ccc(CC(=O)Nc2nc3c(s2)CCc2ccccc2-3)cc1OC (10 µM)	0
N[C@H](Cc1c[nH]c2ccccc12)C(=O)N/N=C/c1ccc2nccnc2c1 [Rhosin (hydrochloride)] (10 µM)	0
CC(C)(C)c1ccc(S(=O)(=O)Nc2ccc(-n3ccnc3)cc2)cc1 (10 µM)	0
Cc1ccc(-c2c(C(=O)CF)n(CCCO)c3ncnc(N)c23)cc1 (10 µM)	0

Target: LCK (UniProt P06239)
Experiment: as above
Settings: K562; 2-18 h

SMILES	number of time points
C=C(CCC=C(C)C)[C@H]1CC[C@]2(C)[C@@H]1[C@H](O)C[C@@H]1[C@@]3(C)CC[C@H](O[C@@H]4O[C@H](CO)[C@@H](O)[C@H](O)[C@H]4O[C@@H]4O[C@H](CO)[C@@H](O)[C@H](O)[C@H]4O)C(C)(C)[C@@H]3CC[C@]12C [Ginsenoside Rk1] (10 µM)	0
CCn1c(=O)c(-c2ccc(-c3cncs3)cc2Cl)cc2cnc(Nc3ccc(N4CCN(C)CC4)cc3)nc21 (2.5 µM)	0
Nc1nccc(Oc2ccc(NC(=O)c3cn(COP(=O)(O)O)cc(-c4ccc(F)cc4)c3=O)cc2F)c1Cl (10 µM)	0
Cc1cc(-c2cc(OC(=O)c3ccccc3)ccc2Cl)cc2nnc(Nc3ccc(OCCN4CCCC4)cc3)nc12 (0.5 µM)	0
OC[C@H]1O[C@@H](Oc2cc3c(O)cc(O)cc3[o+]c2-c2cc(O)c(O)c(O)c2)[C@H](O)[C@@H](O)[C@@H]1O [Delphinidin 3-glucoside (chloride)] (10 µM)	0
O=C(/C=C/c1ccc(O)c(O)c1)c1ccc(O[C@@H]2O[C@H](CO)[C@@H](O)[C@H](O)[C@H]2O)c(O)c1O [Marein] (10 µM)	0
O=C1Nc2nc(-c3c(O)cccc3OCC3CC3)cc([C@@H]3CCCNC3)c2CO1 [Bay 65-1942 (hydrochloride)] (10 µM)	0
CC(C)CN(CC(=O)N1CCN(CC(OCc2ccc3ccccc3c2)c2ccc(Cl)cc2Cl)CC1)CC(C)C (centres undefined) [LYN-1604 (dihydrochloride)] (2.5 µM)	0
CCc1cc(O)c(F)cc1-c1ccc2c(-c3nc4c([nH]3)CN(C3CCN(C)CC3)CC4)n[nH]c2c1 [JAK-IN-5 (hydrochloride)] (2 µM)	0
Cc1ccc(Nc2cc(-c3cccc(N4C(=O)c5ccccc5C4=O)c3)ncn2)cc1NS(C)(=O)=O (10 µM)	0
C=C1C(=O)O[C@@H]2C[C@@]3(C)CCC[C@H](C)C3=C[C@H]12 [Alantolactone] (10 µM)	0
C=C(C)C(=O)Nc1cccc(-c2ncnc3[nH]cc(C(=O)OCC)c23)c1 (10 µM)	0
CNc1nc(Nc2cnn(C3CCN(C4COC4)CC3F)c2Cl)ncc1C(F)(F)F (centres undefined) (10 µM)	0
Cc1cc(Nc2cc(Cl)nc(Oc3ccc([N+](=O)[O-])cc3)n2)n[nH]1 [Autophinib] (2.5 µM)	0
CC(C)=CC[C@H](O)C1=CC(=O)c2c(O)ccc(O)c2C1=O [(-)-Alkannin] (2.5 µM)	0
CNCc1ccccc1-c1csc([C@@H](C)Nc2nc(C)nc3cc(OC)c(OC)cc23)c1 (2.5 µM)	0
COc1ncc(-c2nc(N3CCOCC3)nc3c(CN4CCC(C(C)(C)O)CC4)cc(F)cc23)cc1NS(C)(=O)=O [Linperlisib] (10 µM)	0
O=C(Nc1ccc(F)cc1F)[C@H](NC(=S)Nc1cc(C(F)(F)F)cc(C(F)(F)F)c1)c1ccccc1 (2.5 µM)	0

Rewritten bar-delimited: entries from further up.
SMILES | number of time points
O=C(/C=C/c1ccc(O)c(O)c1)c1ccc(O[C@@H]2O[C@H](CO)[C@@H](O)[C@H](O)[C@H]2O)c(O)c1O [Marein] (10 µM) | 0
CCc1cc(O)c(F)cc1-c1ccc2c(-c3nc4c([nH]3)CN(C3CCN(C)CC3)CC4)n[nH]c2c1 [JAK-IN-5 (hydrochloride)] (2 µM) | 0
